Screening data, single-dose tests

Amino acid sequences for entries named in this document (tags omitted). Residues count along the entry.
UniProt Q8IDJ8, 1-583: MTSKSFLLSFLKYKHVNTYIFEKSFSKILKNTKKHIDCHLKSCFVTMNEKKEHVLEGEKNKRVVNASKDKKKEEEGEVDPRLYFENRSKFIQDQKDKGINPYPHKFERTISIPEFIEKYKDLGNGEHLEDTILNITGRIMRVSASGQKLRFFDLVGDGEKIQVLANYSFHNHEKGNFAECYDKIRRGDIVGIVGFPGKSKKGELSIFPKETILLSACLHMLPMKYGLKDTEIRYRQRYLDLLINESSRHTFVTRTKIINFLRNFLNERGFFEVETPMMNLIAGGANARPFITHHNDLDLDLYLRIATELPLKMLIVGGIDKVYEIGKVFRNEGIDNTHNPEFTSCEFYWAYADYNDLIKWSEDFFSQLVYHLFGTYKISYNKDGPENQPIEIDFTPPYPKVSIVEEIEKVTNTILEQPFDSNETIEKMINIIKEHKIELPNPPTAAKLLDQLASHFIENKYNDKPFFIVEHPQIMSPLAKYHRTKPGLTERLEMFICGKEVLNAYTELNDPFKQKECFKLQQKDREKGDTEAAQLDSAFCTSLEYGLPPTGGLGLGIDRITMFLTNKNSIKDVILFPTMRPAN
UniProt P9WNZ1, whole entry: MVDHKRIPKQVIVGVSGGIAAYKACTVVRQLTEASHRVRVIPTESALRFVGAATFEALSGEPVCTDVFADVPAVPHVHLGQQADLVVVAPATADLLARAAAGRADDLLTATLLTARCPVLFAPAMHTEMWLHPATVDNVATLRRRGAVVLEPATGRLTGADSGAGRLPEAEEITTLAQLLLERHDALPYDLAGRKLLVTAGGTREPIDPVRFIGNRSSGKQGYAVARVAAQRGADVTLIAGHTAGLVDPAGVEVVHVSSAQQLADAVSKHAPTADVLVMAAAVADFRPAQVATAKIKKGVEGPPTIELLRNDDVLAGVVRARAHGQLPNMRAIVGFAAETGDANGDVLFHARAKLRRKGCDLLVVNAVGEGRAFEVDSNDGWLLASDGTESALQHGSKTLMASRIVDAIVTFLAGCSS

PfKRS1: 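Lysine-tRNA ligase, Plasmodium falciparum 3D7 (UniProt Q8IDJ8). Enzyme assay of the cytosolic lysyl-tRNA synthetase in 384-well plates, read by luminescence. Tested at 30 µM. Higher reads as stronger inhibition, judged from the few compounds that gave an IC50. Size under these conditions: about 69,000 compounds, about 49 of them at 50% or above in at least one test.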
Toxoplasma: 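Assay of Toxoplasma gondii numbers, read through their beta-galactosidase reporter with a colour substrate. Concentration: 10 µM. The record gives no direction; the compounds picked for IC50 retests had high values, so higher reads as fewer parasites. Size under these conditions: about 67,000 compounds, about 260 of them at 50% or above in at least one test.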
CoaBC: 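Enzyme assay of CoaBC with a phosphate dye (Biomol Green) read at 650 nm. Target: Coenzyme A biosynthesis protein CoaBC, Mycobacterium tuberculosis (UniProt P9WNZ1). Tested at 30 µM. Direction is inferred from only a few compounds that gave an IC50; most scored high, so higher reads as stronger inhibition. Most strong results did not repeat in a second test. Size under these conditions: about 67,000 compounds, about 40 of them at 50% or above in at least one test.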

Results are given as percent effect.
The controls that fix the scale are not given in the record; negative values are as filed.
The compounds are a random part of those screened.
Two or more numbers in one place are separate tests of the same structure; such repeats can differ widely.
A dash means the value is not listed here; it may have been measured.

| SMILES | PfKRS1 | Toxoplasma | CoaBC |
|---|---|---|---|
| `Cn1nc(Br)c2c(NCCNc3ncccn3)ncnc21` | 1.157 | -13.76 | 0.1266 |
| `O=C(c1cn(CCN2CCCCC2)nn1)N1CCSCC1` | -0.2555 | 8.396 | -4.418 |
| `CN(C)Cc1cc(C2CCCCN2S(=O)(=O)Cc2ccccc2)nn1C.Cl` (stereo not drawn) | - | 14.34 | - |
| `Cc1ccc(CN[C@@H]2COC[C@H]2Cc2cc(C)no2)cc1.O=C(O)CC(O)(CC(=O)O)C(=O)O` | - | 3.75 | - |
| `C=C(C)CN(CC)Cc1nc(C(C)(C)C)no1` | -1.468 | 14.03 | 8.974 |
| `CC(C)CC(C)(CNC(=O)c1cnccn1)NC(=O)c1cnccn1` (stereo not drawn) | 3.481 | -3.902 | 13.61 |
| `Cc1[nH]c2ccc(C#N)cc2c1CCNc1ncnc2c1CCNCC2` | 2.274 | -1.134 | -21.6 |
| `COc1cccc(CCC(=O)N2CCN(Cc3noc(C)n3)CC2)c1` | 5.395 | -40.41 | 1.717 |
| `CC(C)(C)C(O)CN1CCN(C(=O)COCC2CC2)CC1` (stereo not drawn) | -0.155 | -1.787 | -2.948 |
| `c1ccc(-c2nnn3c2COC(CNCc2ccccn2)C3)cc1` (stereo not drawn) | 3.541 | -8.063 | 1.057 |
| `CCOc1cccc(C(C)NC(=O)N2CCC(C(N)=O)CC2)c1` (stereo not drawn) | 5.204 | -2.654 | 3.625 |
| `COC(=O)c1cccc(-c2c[nH]c(C)n2)c1` | 3.612 | -6.502 | 1.733 |
| `Cc1noc(C)c1-c1cc(C2CCNCC2)ccn1` | 2.401 | -2.454 | -3.09 |
| `Cc1cc2ccccc2n1CCC(=O)N1CCC2(CC1)CNC(=O)C2` | 3.057 | 7.544 | 1.85 |
| `Cc1cc(C)c(S(N)(=O)=O)cc1C(=O)NCCN1CCC(C)CC1` | 1.703 | 16.7 | -7.552 |
| `NC(=O)C1CCCN(C(=O)c2ccn(-c3ccc(F)cc3)n2)C1` (stereo not drawn) | 1.503 | 4.244 | 1.276 |
| `CCn1cc(CN2CCCN(C(=O)CCc3ccncc3)CC2)cn1` | -0.5217 | 0.1059 | -0.241 |
| `O=C1N(Cc2ccc(F)cc2)CCCC12CCN(C1CCSCC1)C2` (stereo not drawn) | 2.663 | 3.887 | -22 |
| `O=S(=O)(NCC1(O)CCOc2ccccc21)c1ccccc1F` (stereo not drawn) | 7.6 | 0.4072 | -3.121 |
| `O=C1[C@H]2CN(CC3CC3)C[C@H]2CN1c1ccsc1` | 0.01164 | - | 6.684 |
| `Cc1cc(C)n2ncc(CN3CCC(n4cc(CCO)nn4)CC3)c2n1` | 3.438 | 5.285 | 3.719 |
| `Cc1nn(C)c(Cl)c1C1CCCN1Cc1nnc(C2CC2)n1C` (stereo not drawn) | 5.588 | -2.07 | 2.41 |
| `CC1c2ncc(CN3CCN(C)CC3)n2CCN1Cc1ccsc1` (stereo not drawn) | 3.334 | - | 1.975 |
| `[H][C@@]12CCN(C(=O)c3ccsc3)C[C@@]1([H])O[C@H](c1noc(C)n1)C2` | - | 2.438 | - |
| `COCc1nc(C(=O)N2CCCC2Cn2cc(C)cn2)cs1` (stereo not drawn) | 1.49 | -4.394 | 1.305 |
| `CCC[C@@H]1CN(Cc2ccc(N(C)C)nc2)C[C@H]1N(C)C` | 5.106 | -10.21 | -5.556 |
| `CC(NC(N)=O)C(=O)Nc1ccc(OCc2cccc(F)c2)c(F)c1` (stereo not drawn) | 4.283 | -6.197 | 3.361 |
| `[H][C@@]12CN(C(=O)c3conc3C)C[C@]1([H])C(=O)N(Cc1cccc(C)c1)C2` | - | 14.48 | - |
| `Cc1ccnc(OC[C@]23COC[C@H]2CN(C(=O)C2=CCCCC2)C3)n1` | 1.32 | - | 12.35 |
| `COCCNC(=O)C1CCCN(c2ccc3nncn3n2)C1` (stereo not drawn) | 6.652 | -20.68 | -4.598 |
| `CN(C)c1ncccc1CNC(=O)N1CCCC1c1ccsc1` (stereo not drawn) | -0.1739 | 4.341 | 4.337 |
| `NC(=O)C1CCN(CCc2ccc(NCc3ccoc3)cc2)CC1` | -2.738 | 4.071 | 0.9724 |
| `CN(C(=O)C1CCCC1)C(c1cccc(F)c1)c1ccccn1` (stereo not drawn) | 1.757 | -14.83 | 0 |
| `CN(CC(=O)N(C)C1CCCCC1)Cc1nc2c(cnn2C)c(=O)[nH]1` | -3.828 | -1.119 | 7.847 |
| `O=C(Cc1ccc(F)c(F)c1)NC1COc2ccccc2C1=O` (stereo not drawn) | -0.1949 | -5.486 | -3.926 |
| `Cc1cccc2[nH]c(-c3cn(C4CCNCC4)nn3)nc12` | -1.687 | 10.37 | -32.04 |
| `CC(=O)N1CCC(Cc2cccc(-c3c(C)noc3C)n2)C1` (stereo not drawn) | 3.619 | -8.864 | 0.4843 |
| `CSc1nc(C)cc(N2CCC(c3ncc[nH]3)CC2)n1` | 2.46 | -9.243 | 15.87 and 21.84 |
| `Cn1ccnc1CNC(=O)CC1CCCCO1` (stereo not drawn) | 2.214 | 0.6782 | -11.14 |
| `CC(C)(C(=O)NCC(N)=O)c1ccccc1F` | 5.828 | 4.304 | -2.954 |
| `COc1ccc(CCn2ccnc2-c2cc3n(n2)CCCNC3)cc1` | 1.403 | -2.403 | 1.34 |
| `Cc1noc(C)c1CN1CCOCC12CCN(c1nccs1)CC2.O=C(O)C(F)(F)F` | - | 2.292 | - |
| `CC(=O)NCC(=O)N1CCOC2(CCCN(c3cccnc3)C2)C1.O=C(O)C(F)(F)F` (stereo not drawn) | - | -12.2 | - |
| `CN(CC(=O)NC1CCOCC1)C1CCCN(c2cccnn2)C1` (stereo not drawn) | 2.168 | -2.288 | -0.1277 |
| `Cc1ccc(CN2CCC3(CC2)CCN(C(=O)c2cccn2C)C3)cc1` | 1.173 | - | 6.306 |
| `N#Cc1ccccc1N1CCCN(CC(=O)Nc2ccccc2Cl)CC1` | 5.464 | -0.2959 | -4.959 |
| `CCCNC(=O)c1cc2c(s1)CCN2C(=O)CN(C)C.O=C(O)C(F)(F)F` | - | -7.862 | - |
| `CC(C)CN1CCC(NC(=O)NCCC(=O)NCc2ccccc2)CC1` | 3.261 | 3.481 | -2.917 |
| `CN(Cc1nc(-c2cccnc2)no1)C(=O)c1c2c(nn1C)CCCC2` | -0.4524 | -0.5408 | -0.7317 |
| `COC(=O)CCCNC(=O)COc1ccccc1C(F)(F)F` | 1.1 | 9.729 | -1.24 |
| `Cc1noc(C)c1CS(=O)(=O)CC(=O)NCCc1ccccc1` | 5.601 | 2.655 | -4.214 |
| `Cc1cc(-c2cnc(N3CCSCC3)nc2C(C)C)on1` | 0.1327 | 17.69 | -28.09 |
| `O=C(O)C(F)(F)F.O=C(O)C(F)(F)F.O=C(O)C(F)(F)F.[H][C@@]12CN(Cc3cccnc3OC)C[C@]1([H])OCCN2CCN(C)C` | - | 8.441 | - |
| `CC(C)N1CCC2(CCN(C(=O)c3cccnc3)CC2)C1` | 5.717 | - | 5.913 |
| `Cc1nc(NC(=O)NC2CC(=O)N(C)C2)nn1C` (stereo not drawn) | -1.655 | -8.511 | 4.819 |
| `CC(C)N1CCC(CC(=O)NCC2OCCc3ccccc32)CC1` (stereo not drawn) | 1.59 | -1.42 | 1.827 |
| `N#Cc1csc(CNCCOc2ncccc2Cl)c1` | -2.854 | 4.245 | 7.992 |
| `Cc1cc(N2CCCC2c2cncc(N(C)C)n2)ncn1` (stereo not drawn) | 4.845 | 3.821 | 0.3717 |
| `NC(=O)CCC1CCCN(c2ccc3ccc(F)cc3n2)C1` (stereo not drawn) | -4.729 | -1.076 | -0.9709 |
| `CSCC(C)(O)CNC(=O)c1ccc(F)cc1Cl` (stereo not drawn) | 3.37 | 4.039 | 5.325 |
| `O[C@@H]1C[C@@](CNCc2ccc(Cl)cc2)(COc2cccnc2)C[C@@H]1O` | 2.371 | - | -1.545 |
| `O=C(O)C(F)(F)F.[H][C@@]12COC[C@]1(CNS(=O)(=O)CC)CN(CCc1ccccc1)C2` | - | 3.891 | - |
| `CC(C)n1ncc2c1NC(=O)C(C#N)C21CCCC1` (stereo not drawn) | 8.129 | 4.082 | 4.032 |
| `Cc1[nH]ncc1CCCNC(=O)Nc1ccc(F)cc1` | 2.881 | -4.425 | 3.526 |
| `CN(C)CCOCC1CN(C(=O)c2ccsc2)Cc2ccnn2C1.O=C(O)C(F)(F)F.O=C(O)C(F)(F)F` (stereo not drawn) | - | 10.08 | - |
| `O=C(Nc1cc(-c2cccnc2)no1)C1CCC1` | 8.761 | -12.16 | -3.666 |

Repeated from the top, 5 entries:

For Cn1nc(Br)c2c(NCCNc3ncccn3)ncnc21 the result was PfKRS1: 1.157%; Toxoplasma: -13.76%; CoaBC: 0.1266%.
For O=C(c1cn(CCN2CCCCC2)nn1)N1CCSCC1 the result was PfKRS1: -0.2555%; Toxoplasma: 8.396%; CoaBC: -4.418%.
For CN(C)Cc1cc(C2CCCCN2S(=O)(=O)Cc2ccccc2)nn1C.Cl (stereo not drawn) the result was Toxoplasma: 14.34%.
For Cc1ccc(CN[C@@H]2COC[C@H]2Cc2cc(C)no2)cc1.O=C(O)CC(O)(CC(=O)O)C(=O)O the result was Toxoplasma: 3.75%.
For C=C(C)CN(CC)Cc1nc(C(C)(C)C)no1 the result was PfKRS1: -1.468%; Toxoplasma: 14.03%; CoaBC: 8.974%.

Data taken from ChEMBL document CHEMBL3988442, “University of Dundee, Small-Polar-MMV Screening Library” (2021).